These are yes or no findings as the source states them, for the method shown. In cells and extracts the contact can be indirect. Some results given as binding are weak or reduced against the parent protein; the word gives no strength.
Target: Flag-HIF-1α (UniProt Q16665)
Test: co-IP; Flag-HIF-1α and Xpress-USP7 co-transfected into HEK293T; immunoprecipitation with α-Flag beads or α-Xpress beads, immunoblotting with α-Xpress or α-Flag antibody; 1% of whole cell lysate as input

Sequences of proteins named here, by UniProt entry; tags and fusion partners are left off.
UniProt Q16665: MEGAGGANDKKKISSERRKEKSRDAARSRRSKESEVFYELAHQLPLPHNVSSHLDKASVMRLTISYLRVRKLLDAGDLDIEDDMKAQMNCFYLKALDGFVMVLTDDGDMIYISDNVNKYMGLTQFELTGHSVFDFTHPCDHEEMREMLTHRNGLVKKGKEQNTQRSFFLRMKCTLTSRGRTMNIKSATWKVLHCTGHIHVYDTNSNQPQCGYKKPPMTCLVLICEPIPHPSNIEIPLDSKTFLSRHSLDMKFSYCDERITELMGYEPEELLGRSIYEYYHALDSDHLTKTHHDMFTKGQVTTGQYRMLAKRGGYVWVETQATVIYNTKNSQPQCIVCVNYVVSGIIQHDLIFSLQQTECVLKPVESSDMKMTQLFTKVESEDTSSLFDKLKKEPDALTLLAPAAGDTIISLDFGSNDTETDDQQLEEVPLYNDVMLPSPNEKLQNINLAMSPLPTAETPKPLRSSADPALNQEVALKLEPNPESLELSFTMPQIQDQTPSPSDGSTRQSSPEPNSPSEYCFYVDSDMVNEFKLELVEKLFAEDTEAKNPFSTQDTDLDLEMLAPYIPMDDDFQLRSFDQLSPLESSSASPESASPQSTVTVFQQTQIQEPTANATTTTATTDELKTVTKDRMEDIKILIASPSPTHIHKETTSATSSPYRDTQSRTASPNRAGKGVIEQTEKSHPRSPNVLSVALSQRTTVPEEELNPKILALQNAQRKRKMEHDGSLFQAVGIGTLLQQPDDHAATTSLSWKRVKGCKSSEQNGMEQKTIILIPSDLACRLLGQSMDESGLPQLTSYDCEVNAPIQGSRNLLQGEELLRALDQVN
UniProt Q93009: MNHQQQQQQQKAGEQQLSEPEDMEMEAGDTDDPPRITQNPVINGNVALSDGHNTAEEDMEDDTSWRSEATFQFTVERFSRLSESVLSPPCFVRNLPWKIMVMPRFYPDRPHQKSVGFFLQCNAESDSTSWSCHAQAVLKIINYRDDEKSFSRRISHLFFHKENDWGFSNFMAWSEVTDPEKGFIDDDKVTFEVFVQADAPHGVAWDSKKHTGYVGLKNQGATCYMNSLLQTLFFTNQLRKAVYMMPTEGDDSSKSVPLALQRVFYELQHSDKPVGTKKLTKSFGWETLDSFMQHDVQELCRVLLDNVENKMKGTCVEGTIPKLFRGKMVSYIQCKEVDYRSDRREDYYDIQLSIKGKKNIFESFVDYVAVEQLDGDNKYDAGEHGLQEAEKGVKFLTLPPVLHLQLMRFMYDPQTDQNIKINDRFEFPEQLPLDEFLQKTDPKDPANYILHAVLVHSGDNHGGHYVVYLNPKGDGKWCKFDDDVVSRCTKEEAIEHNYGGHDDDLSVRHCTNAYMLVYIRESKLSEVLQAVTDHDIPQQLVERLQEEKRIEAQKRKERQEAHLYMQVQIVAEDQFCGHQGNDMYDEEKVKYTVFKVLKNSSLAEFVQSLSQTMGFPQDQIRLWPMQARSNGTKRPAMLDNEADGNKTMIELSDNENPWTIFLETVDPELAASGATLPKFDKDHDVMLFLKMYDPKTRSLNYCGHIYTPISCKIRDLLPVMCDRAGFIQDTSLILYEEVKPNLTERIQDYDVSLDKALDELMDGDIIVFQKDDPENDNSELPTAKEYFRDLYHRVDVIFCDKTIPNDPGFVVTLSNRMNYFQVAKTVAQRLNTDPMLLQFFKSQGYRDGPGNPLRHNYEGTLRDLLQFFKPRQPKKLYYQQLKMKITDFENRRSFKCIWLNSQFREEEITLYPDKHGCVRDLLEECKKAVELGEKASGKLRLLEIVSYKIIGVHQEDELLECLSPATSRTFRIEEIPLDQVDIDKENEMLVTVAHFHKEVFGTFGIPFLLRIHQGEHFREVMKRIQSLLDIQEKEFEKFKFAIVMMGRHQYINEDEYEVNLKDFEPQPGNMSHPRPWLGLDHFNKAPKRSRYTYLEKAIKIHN

In the case of “Xpress-USP7 (from UniProt Q93009 1-1102) (enzyme)”, the binding is reported as “binds”.

— publication PMC8570024
